Here are results for one sequence from article PMC5996148.

Among the test systems are NKG2D ligand 4 (human); NME1 (human); NME5 (human); NME6 (human); NMI (human); NMNAT2 (human); NPC2 (human); NPL (human); NRARP (human); NUCB1 (human); NUDT9 (human); NUMB (human); NVL (human); NY-SAR-48 (human); Neuroplastin (human).
Holding throughout (experiment): protein microarray (ProtoArray v5.0), streptavidin-Alexa Fluor 647
Holding throughout (conditions): 3'-biotin; 20 mM Tris (pH 7.5), 5 mM MgCl2, 100 mM KCl, 0.1% Tween-20, A/T-rich and random oligonucleotide blockers; temperature not stated; high values mean tight binding

The target in the next assay is T1, NMT2 (UniProt O60551).
T1 sequence: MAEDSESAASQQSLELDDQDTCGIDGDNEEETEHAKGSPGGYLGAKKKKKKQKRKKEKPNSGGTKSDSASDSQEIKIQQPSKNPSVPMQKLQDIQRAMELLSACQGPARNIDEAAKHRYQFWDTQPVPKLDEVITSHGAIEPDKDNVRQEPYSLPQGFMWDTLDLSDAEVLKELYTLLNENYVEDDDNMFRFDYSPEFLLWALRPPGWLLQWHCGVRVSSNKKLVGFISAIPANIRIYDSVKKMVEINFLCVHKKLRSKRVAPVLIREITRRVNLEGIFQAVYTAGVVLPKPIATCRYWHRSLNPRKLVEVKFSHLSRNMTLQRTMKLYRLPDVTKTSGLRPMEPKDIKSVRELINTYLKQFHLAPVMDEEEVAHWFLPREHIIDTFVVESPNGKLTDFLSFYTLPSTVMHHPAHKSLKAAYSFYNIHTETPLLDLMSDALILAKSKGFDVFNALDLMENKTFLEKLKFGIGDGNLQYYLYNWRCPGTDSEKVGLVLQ

In a further assay the target is T2, NOL7 (UniProt Q9UMY1).
T2 sequence: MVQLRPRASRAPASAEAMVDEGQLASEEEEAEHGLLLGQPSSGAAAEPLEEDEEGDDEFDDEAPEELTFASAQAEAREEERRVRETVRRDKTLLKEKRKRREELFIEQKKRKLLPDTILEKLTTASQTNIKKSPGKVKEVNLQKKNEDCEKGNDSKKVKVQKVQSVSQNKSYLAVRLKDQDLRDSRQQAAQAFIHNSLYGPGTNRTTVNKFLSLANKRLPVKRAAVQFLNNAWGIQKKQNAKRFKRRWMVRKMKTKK

In assay [1] the test system is Neurocalcin-delta (human).
Assay [2] deals with Non-histone chromosomal protein HMG-14 (human).
Assay [3] concerns Nuclear protein Hcc-1 (human).

The other results are listed elsewhere or left out. For some assays here: Construct or isoform of the protein are uncertain.

With “GGGGACAGGGGTATGGGGAGGGG [G4-3 biotinylated (CtG)]”, the binding signal in the assay on NKG2D ligand 4 (human) was -0.317 z-score; with NME1 (human), -0.333 z-score; with NME5 (human), -0.331 z-score; in the assay with NME6 (human), -0.326 z-score; with NMI (human) it was -0.312 z-score; with NMNAT2 (human) it was -0.333 z-score. Besides, the binding signal in the assay with NMT2 is 4.57 z-score; with NOL7, 8.76 z-score; in the assay on NPC2 (human), -0.322 z-score; in the assay on NPL (human) it was -0.331 z-score; in the assay on NRARP (human) it was -0.338 z-score; in the assay on NUCB1 (human) it was -0.309 z-score. Besides, the binding signal in the assay with NUDT9 (human) is -0.326 z-score; with NUMB (human) it was -0.338 z-score; in the assay on NVL (human) it was -0.329 z-score; with NY-SAR-48 (human), -0.315 z-score; in [1] it was -0.337 z-score; with Neuroplastin (human), -0.316 z-score. Besides, the binding signal is 7.64 z-score in assay [2] and 7.27 z-score in assay [3].
